Assay results reported in PubChem BioAssay AID2551 (National Center for Advancing Translational Sciences (NCATS), 2010).
Hit rate of the full screen: of about 310,000 compounds, about 17,000 (5.5%) were called active. Inconclusive means that the source gave no clear call. Such entries were picked first, then a sample of the others. Calls come from the whole dose curve; as a rule, active = well fitted inhibition curve with a large enough effect; inconclusive = small, poorly fitted or top-dose-only effect, or effect the other way; inactive = no such curve, though single readings can be large or run the other way. A potency beside an inconclusive call is a rough fit, not a confirmed value.

Amino acid sequences for entries named in this document (tags omitted). A change or cut given only in a name is not applied to a line headed by its entry.
UniProt P51450: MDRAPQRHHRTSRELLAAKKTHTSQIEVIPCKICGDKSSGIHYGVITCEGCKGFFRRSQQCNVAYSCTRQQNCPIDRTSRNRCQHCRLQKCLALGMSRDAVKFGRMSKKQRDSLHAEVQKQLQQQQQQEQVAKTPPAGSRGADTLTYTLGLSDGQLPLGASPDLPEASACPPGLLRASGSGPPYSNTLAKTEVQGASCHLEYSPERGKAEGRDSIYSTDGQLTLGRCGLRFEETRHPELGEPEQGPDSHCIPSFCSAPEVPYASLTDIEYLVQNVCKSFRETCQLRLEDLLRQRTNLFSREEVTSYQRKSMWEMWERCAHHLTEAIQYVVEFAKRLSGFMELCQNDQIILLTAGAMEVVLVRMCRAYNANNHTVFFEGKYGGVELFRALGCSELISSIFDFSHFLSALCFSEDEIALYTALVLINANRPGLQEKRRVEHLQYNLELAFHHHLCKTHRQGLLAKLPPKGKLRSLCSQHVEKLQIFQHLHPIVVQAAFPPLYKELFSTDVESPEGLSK

target: Nuclear receptor ROR-gamma (Mus musculus) (UniProt P51450); test: qHTS for inhibitors of ROR gamma transcriptional activity; settings: Drosophila S2 Gal4-RORgamma UAS-luciferase reporter, 20 h; activity change, negative = inhibition: at 53.6 µM (top of the series); note: nearly all actives have a fitted effect of over 60% in size
In short: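 Stable Schneider cell line, Gal4 DNA-binding domain fused to ROR gamma, UAS-luciferase. Cmpd 1 hr RT → CuSO4 700 uM final → 20 hr RT → luciferase reagent 10 min → luminescence.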
% is set by controls: 0 for no effect and ±100 for the full control effect; potency is the fitted concentration of half-maximal effect.

Structure (SMILES) | Potency | activity change, negative = inhibition
CCc1ccc2c(Cl)c(C(=O)N/N=C/c3c[nH]c4ccccc34)sc2c1 | active: 8.91 µM | 
O=C(NCc1ccc2c(c1)OCO2)C(=O)NCC1OCCN1S(=O)(=O)c1ccc(Cl)cc1 (stereo not given) | inconclusive: 12.6 µM [activator, partial curve] | 
COc1ccccc1C(CCNCc1ccccc1)c1ccc(OC(C)C)cc1 (stereo not given) | inconclusive: 14.1 µM [inhibitor, single point] | 
CC(=O)c1cccc(NC(=O)NCCc2c[nH]c3ccccc23)c1 | inconclusive: 2.82 µM [activator, full curve] | 
CCCc1cc(=O)n2[nH]c(-c3ccc(Br)cc3)cc2n1 | inconclusive: 0.398 µM [activator, full curve] | 
O=C(CSc1ncnc2c(-c3ccc(Cl)cc3)nsc12)c1ccccc1 | inconclusive: 12.6 µM [inhibitor, partial curve, poor fit] | 
COC(=O)C1=C(C)N(Cc2ccccc2)C(=NCCc2ccccn2)N[C@H]1c1cccc(C(F)(F)F)c1 | inconclusive: 35.5 µM [inhibitor, single point] | 
Cc1c(NC(=O)c2cc(=O)[nH]c3ccccc23)c(=O)n(-c2ccccc2)n1C |  | inactive: 22.9%
COc1ccc(N(C(=O)CCl)C(C(=O)NCCc2ccccc2)c2cccs2)cc1 (stereo not given) | active: 11.2 µM | 
COC(=O)[C@H](Cc1ccccc1)NC(=O)O[C@@H]1C(=O)c2cc(Br)ccc2O[C@H]1c1cccc(OC)c1 | inconclusive: 20 µM [activator, single point] | 
Cc1ccc(CN2CCN(CC(=O)NCCCN3CCN(c4ccc(F)cc4)CC3)C2=O)cc1 | inconclusive: 35.5 µM [activator, single point] | 
CSc1sc(C#N)c2c1/C(=N\O)CCC2 |  | inactive: 16.4%
O=C(NN=C1CCCC1)c1sc2ccccc2c1Cl | active: 11.2 µM | 
NC(=O)C1CCN(C(=O)COc2ccc3ccccc3c2)CC1 | inconclusive: 12.6 µM [inhibitor, partial curve, poor fit] | 
O=C(COc1ccc([N+](=O)[O-])cc1)NN=C1CCCC1 |  | inactive: -17.7%
CCN1C(=NCCc2c[nH]c3ccccc23)N[C@@H](c2ccccc2)C(C(=O)OC)=C1C | inconclusive: 11.2 µM [activator, partial curve] | 
N=C1C(c2nc3ccccc3[nH]2)=C(O)CN1c1ccc(CC(=O)O)cc1 | inconclusive: 35.5 µM [inhibitor, single point] | 
CCC1(C)Cc2nc3[nH]c(=S)n(-c4ccc(C)cc4)c(=O)c3cc2CO1 (stereo not given) | active: 1.26 µM | 
N#CCc1ccc(NC(=O)c2ccc(S(=O)(=O)N3CCCC3)cc2)cc1 | inconclusive: 15.8 µM [activator, single point] | 
O=C(CCl)N1c2ccccc2SCC1c1ccccc1 (stereo not given) | active: 11.2 µM | 
Cc1ccc(-n2c(Cc3ccccc3)n[nH]c2=S)c(C)c1 | active: 1.58 µM | 
CCCCn1c(SCC(=O)N2CCOCC2)nnc1-c1ccoc1C | inconclusive: 14.1 µM [inhibitor, partial curve] | 
CCN(CC)C(=O)C(=O)c1cn(CC(=O)NCc2ccc3c(c2)OCO3)c2ccccc12 | inconclusive: 22.4 µM [activator, single point] | 
CCOc1ccc(NC(=O)CSc2nc3ccccc3nc2N2CCOCC2)cc1 |  | inactive: 18%
c1ccc(Nc2nc3ccccc3n3cnnc23)cc1 | inconclusive: 22.4 µM [activator, single point] | 

Record cards, as listed above.
Cc1c(NC(=O)c2cc(=O)[nH]c3ccccc23)c(=O)n(-c2ccccc2)n1C as listed: activity change, negative = inhibition: inactive: 22.9%
CCc1ccc2c(Cl)c(C(=O)N/N=C/c3c[nH]c4ccccc34)sc2c1 as listed: Potency: active: 8.91 µM
O=C(CCl)N1c2ccccc2SCC1c1ccccc1 (stereo not given) as listed: Potency: active: 11.2 µM

The list goes on:

Structure (SMILES) | Potency | activity change, negative = inhibition
COc1ccc(/C=C2\CCc3ccccc3C2=O)cc1CN1CCOCC1 | inconclusive: 0.708 µM [activator, full curve] | 
Cc1ccc(-c2cc(C(=O)NCCCN3CCOCC3)c3ccc(Cl)c(C)c3n2)cc1 | inconclusive: 20 µM [inhibitor, single point] | 
O=C(Nc1ccc(NC(=O)C2CC2)cn1)c1ccccc1 | active: 12.6 µM | 
Cc1ccc(-c2cc(C(=O)N/N=C/c3c[nH]c4ccccc34)[nH]n2)cc1 |  | inactive: 18.8%
Cc1cccc(OCCNc2ccc([N+](=O)[O-])cn2)c1 |  | inactive: 8.55%
Cc1nc(S/C(=C/c2ccc(-c3cccc(Cl)c3)o2)C(=O)O)n[nH]1 | active: 1.26 µM | 
Cc1ccc(-c2nnc(-c3cccc(Br)c3)o2)cc1 | inconclusive: 0.708 µM [activator, full curve, poor fit] | 
Oc1c(C(c2ccccc2Cl)N2CCCC2)ccc2cccnc12 (stereo not given) | active: 1.58 µM | 
Cc1ccc(C(=O)N2CCN(c3ccc([N+](=O)[O-])cc3-n3cccc3)CC2)cc1 |  | inactive: 31.9%
Cc1c(OCC(=O)NCCN2CCOCC2)ccc2c1oc(=O)c1ccccc12 |  | inactive: -26.4%
O=C(/C=C/c1ccccc1)NC(NC(=S)Nc1cc(Cl)ccc1Cl)C(Cl)(Cl)Cl (stereo not given) |  | inactive: 15.4%
Cc1ccc(C(=O)NCC(=O)N2CCC(Cc3ccccc3)CC2)cc1 | inconclusive: 20 µM [activator, single point] | 
CCNc1ncc2nc(-c3cn(C)c4ccccc34)c(=O)n(Cc3cccs3)c2n1 |  | inactive: -1.85%
O=C(C1CCCN1S(=O)(=O)c1ccc(Cl)c(Cl)c1)N1CCCCC1 (stereo not given) |  | inactive: 8.22%
c1ccc2c(C3=NNC(=NC4CC4)SC3)c[nH]c2c1 | active: 10 µM | 
O=C1CS/C(=N/N=C2C3CC4CC(C3)CC2C4)N1 | active: 4.47 µM | 
CC(C)CCNC(=S)Nc1ccc(Br)cc1 | active: 3.55 µM | 
COc1ccc(NC(=O)c2[nH]c(C)c(C(C)=O)c2C)cc1Cl | inconclusive: 0.562 µM [inhibitor, full curve, poor fit] | 
Cc1ccc(-n2nnnc2CSc2nnc(-c3ccc(O)cc3)o2)cc1 | inconclusive: 12.6 µM [activator, single point] | 
CSc1nnc(NC(=O)c2cc(=O)c3cc(C)cc(C)c3o2)s1 |  | inactive: 14.6%
C=CCn1c(COc2ccccc2)nnc1SCC(=O)N/N=C/c1cc(Cl)ccc1O | active: 12.6 µM | 
O=C(CSc1nc2ccc(Nc3nc(N4CCOCC4)nc(N4CCOCC4)n3)cc2s1)Nc1ccccc1Cl | inconclusive: 12.6 µM [inhibitor, single point] | 
Cc1cccc(NC(=O)Cn2nnc(-c3ccc(CN4CCCC4)cc3)n2)c1C |  | inactive: -0.794%
Nc1c(-c2ccccc2)cnn1-c1ccc(C(=O)O)cc1 | active: 10 µM | 
Cc1ccc(/C=C2\SC(=S)N(/N=C/c3cc([N+](=O)[O-])ccc3O)C2=O)o1 | inconclusive: 35.5 µM [inhibitor, single point] | 

Structure (SMILES) | Potency | activity change, negative = inhibition
COCCNC(=O)C(=O)N/N=C/c1ccc(C(=O)OC)cc1 |  | inactive: -0.135%
Cc1cc2c(nn1)CCc1nonc1-2 | inconclusive: 17.8 µM [inhibitor, partial curve, poor fit] | 
Cc1ccc(NS(=O)(=O)c2ccc(C(=O)OCC(=O)NCC3CCCO3)cc2)cc1 (stereo not given) | inconclusive: 5.01 µM [inhibitor, partial curve] | 
COc1ccc(N2CCN(C(=S)Nc3cccc(C)c3)CC2)cc1 | inconclusive: 1.58 µM [inhibitor, full curve, poor fit] | 
O=C(N/N=C/c1ccc(-c2ccccc2[N+](=O)[O-])o1)[C@H]1C[C@@H]1c1ccccc1 | inconclusive: 10 µM [inhibitor, single point] | 
CCC(Sc1ccc2nnc(-c3ccc(F)cc3)n2n1)C(=O)OC (stereo not given) | active: 20 µM | 
CCC1CCCCN1C(=S)NC(=O)c1cc(S(=O)(=O)N2CCOCC2)ccc1C (stereo not given) | active: 2.24 µM | 
COc1ccc(C(=O)NC(=S)N2CCOCC2)cc1OC | active: 11.2 µM | 
CC1(C)C(CSc2nc3ccccc3[nH]2)C1(Cl)Cl (stereo not given) |  | inactive: -14.8%
O=C(NCC(O)c1ccc([N+](=O)[O-])cc1)Nc1ccccc1 (stereo not given) |  | inactive: 1.01%
C=C1CCC2C(C)(CO)C(O)CCC2(C)C1C/C=C1\C(=O)OCC1O (stereo not given) | active: 12.6 µM | 
C=CCN(c1ccc(C(=O)Nc2cccc(C)c2)cc1)S(C)(=O)=O |  | inactive: 14.1%
CC(C)C(=O)Nc1nnc(NC(=S)Nc2ccccc2)s1 | active: 0.562 µM | 
COc1ccc(-c2cnc3n2CCCCC3)cc1 | inconclusive: 11.2 µM [inhibitor, partial curve, poor fit] | 
CCCCNC(=S)NNc1c(Cl)cc(Cl)cc1Cl | active: 2.51 µM | 
Cc1c(NC(=S)NC(NC(=O)CC(C)C)C(Cl)(Cl)Cl)c(=O)n(-c2ccccc2)n1C (stereo not given) | inconclusive: 7.08 µM [activator, partial curve] | 
Cc1ccc(CSc2nccc(-c3c(C)nc4ccccn34)n2)cc1 | inconclusive: 5.62 µM [inhibitor, partial curve, poor fit] | 
CCOCCCNC(=O)CN1C(=O)COc2ccc(S(=O)(=O)N3CCOCC3)cc21 |  | inactive: -1.59%
CN(c1ccccc1)c1ccc(/C=C(\C#N)c2nnc3n2CCCCC3)cc1[N+](=O)[O-] | inconclusive: 2.82 µM [inhibitor, single point] | 
N#CCCN(C(=O)COC(=O)c1cccc(S(=O)(=O)Nc2ccc([N+](=O)[O-])cc2)c1)c1ccccc1 | inconclusive: 22.4 µM [activator, single point] | 
COc1ccc(OC)c(/C(O)=C/C(=O)C(=O)Nc2ccccc2OC)c1 |  | inactive: -22.8%
Cc1ccc(-c2nc(CN3CCCCC3c3cccc(F)c3)c(C)o2)o1 (stereo not given) | inconclusive: 15.8 µM [inhibitor, partial curve, poor fit] | 
CCOC(=O)N1CCN(CC(=O)Nc2cc(C)nn2-c2nc3ccccc3s2)CC1 | inconclusive: 12.6 µM [inhibitor, partial curve, poor fit] | 
CCC(C(=O)NCCCN1CCN(CCCNC(=O)C(CC)c2ccccc2)CC1)c1ccccc1 (stereo not given) |  | inactive: 13.9%
C[C@H](NC(=O)c1nc[nH]c1C(=O)N[C@@H](C)C(=O)OC(C)(C)C)C(=O)OCc1ccccc1 | inconclusive: 35.5 µM [inhibitor, single point] | 

Compounds above that contain a COOH group:
Structure (SMILES) | Potency | activity change, negative = inhibition
N=C1C(c2nc3ccccc3[nH]2)=C(O)CN1c1ccc(CC(=O)O)cc1 | inconclusive: 35.5 µM [inhibitor, single point] | 
Cc1nc(S/C(=C/c2ccc(-c3cccc(Cl)c3)o2)C(=O)O)n[nH]1 | active: 1.26 µM | 
Nc1c(-c2ccccc2)cnn1-c1ccc(C(=O)O)cc1 | active: 10 µM | 
